# Measurements taken from publication PMC7819943, “Rice protein-binding microarrays: a tool to detect cis-acting elements near promoter regions in rice”.
# Chains of the proteins cited; added tags and fusions are not shown.
# UniProt Q0JBA9, entry or part of it: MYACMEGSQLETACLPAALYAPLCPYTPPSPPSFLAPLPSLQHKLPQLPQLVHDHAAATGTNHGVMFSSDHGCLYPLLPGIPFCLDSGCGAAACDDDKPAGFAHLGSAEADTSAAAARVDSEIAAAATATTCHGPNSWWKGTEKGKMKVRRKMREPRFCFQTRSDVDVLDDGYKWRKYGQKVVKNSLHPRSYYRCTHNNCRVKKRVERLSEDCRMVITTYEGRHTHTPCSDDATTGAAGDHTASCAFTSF
# This is one part of the list.
# Molecular target: OsWRKY34 (Oryza sativa, UniProt Q0JBA9 1-250)
# Test: protein-binding microarray (RPBM); PBS, 2% BSA, 51.3 ng/ul salmon testes DNA, 50 uM zinc acetate, 200 nM TF, 25 C, 1 h; high values mean tight binding
# Settings: protein: recombinant; tags: N-terminal polyhistidine and DsRed monomer fusion (pET32a); label: CyDye5-dUTP incorporated in the synthesized complementary strand; 3' TTTTT single-stranded linker to array surface; dsDNA, one strand shown
# How it was run: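 Binding signal is reported as fluorescence intensity per feature (arbitrary units) from an Axon 4000B scanner. Incubation used 200 nM of each Ni–NTA-purified, N-terminally polyhistidine- and DsRed-fused transcription factor from E. coli BL21-CodonPlus on a double-stranded custom Agilent array for 1 h at 25 °C, with 50 µM zinc acetate in the buffer, followed by washing.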
row,Sequence,binding signal
1,GGGAGTACGTACGTTACGTAGGAGGTGGGGACCGGTGTGGCGGAGTCACCTAGTGCAG,8970 fluorescence intensity (a.u.)
2,AATGTTTAGGATTTAAAGATGTCTTTTGGTGGGTGGGAAACGGAGTCACCTAGTGCAG,13200 fluorescence intensity (a.u.)
3,GGAAGCTAATTATAATCCGACTTAACACCTCTACACGTCACGGAGTCACCTAGTGCAG,9810 fluorescence intensity (a.u.)
4,CCTTTTGTTCACCCACGTTTCTGCCCAACCCTCTCACCCTCGGAGTCACCTAGTGCAG,8430 fluorescence intensity (a.u.)
5,GACGCAGGGGTTTGGGATATTTTGATGGATTTCGATGACTCGGAGTCACCTAGTGCAG,14200 fluorescence intensity (a.u.)
6,TTTTCTGTACGTGAGAACACATTCCAGTGTATACGCCTTCCGGAGTCACCTAGTGCAG,8680 fluorescence intensity (a.u.)
7,CTTTTTAAACTGTTTAACGATATATTTTTGTATGAAATATCGGAGTCACCTAGTGCAG,8230 fluorescence intensity (a.u.)
8,ACATTTCCTTTAGTTTTATCGTGTCCATGCTGCTTGTTTCCGGAGTCACCTAGTGCAG,15800 fluorescence intensity (a.u.)
9,TGCTTGATTCATCGATCTTACTGATTATTTAATTTGTTTTCGGAGTCACCTAGTGCAG,9700 fluorescence intensity (a.u.)
10,ATTCCTGATTAATCTCCGCAATTCCATCCCGCCGATTCATCGGAGTCACCTAGTGCAG,9390 fluorescence intensity (a.u.)
11,GCTGAACTTTTTTTATTTCATTATAAATATATTTTCTTAACGGAGTCACCTAGTGCAG,8300 fluorescence intensity (a.u.)
12,TAGTTTAGTTTAGCCTTTAATTTTGCTTCCTTGCTACTCTCGGAGTCACCTAGTGCAG,8380 fluorescence intensity (a.u.)
13,ATGCCCTCTCCAACCTCCACTCCGTCACATGCTCCGGATCCGGAGTCACCTAGTGCAG,9210 fluorescence intensity (a.u.)
14,GACTCCATCTTCTTCACGATCTTGTCCAGTACTCCGTATTCGGAGTCACCTAGTGCAG,8550 fluorescence intensity (a.u.)
15,GAGATCTTTCCGTTTTGGCCCTTCGGCAAATCCATATTCCCGGAGTCACCTAGTGCAG,8310 fluorescence intensity (a.u.)
16,GCAGTTTAGCACCTTTCCTTTTTTTAGCCTCAATACATAGCGGAGTCACCTAGTGCAG,8580 fluorescence intensity (a.u.)
17,TTCTATGTTGTGGTTCTGTGTTTTACACTTCAGTTTTGTTCGGAGTCACCTAGTGCAG,8030 fluorescence intensity (a.u.)
18,CCGTCCCTAGTCAACGTCTTGTCATTGCCGCCCCAAACTCCGGAGTCACCTAGTGCAG,10200 fluorescence intensity (a.u.)
19,GCTCCCCTTGACCGCAACGCGACACGATCCCCACGCTAGCCGGAGTCACCTAGTGCAG,8200 fluorescence intensity (a.u.)
20,CTGCTTGTTCTATATTATACATTCCATTACTATGATTTAACGGAGTCACCTAGTGCAG,10900 fluorescence intensity (a.u.)
21,GGCAGGTGGCACGTGCTTCTCCTCGTCCTCGTCTCGTCTCCGGAGTCACCTAGTGCAG,9110 fluorescence intensity (a.u.)

row,Sequence,binding signal
1,GCACCGTCCATATTTTTGTTTATATTTATGTTTATTAGTTCGGAGTCACCTAGTGCAG,11500 fluorescence intensity (a.u.)
2,TCTACCAAACAGTGCCCAATACCGGTTTGACCACGCCACTCGGAGTCACCTAGTGCAG,9830 fluorescence intensity (a.u.)
3,AGTGCGTGATACTACTGCGTATTTCTTGTTTATTCAGATCCGGAGTCACCTAGTGCAG,9140 fluorescence intensity (a.u.)
4,ATAATCACACTCAATCTCAGGTTCTTGCTCCACGTACTCCCGGAGTCACCTAGTGCAG,9790 fluorescence intensity (a.u.)
5,CGCCGCCGCCGCCGCCGTCCAAGATGGACTGCTTCTTGTCCGGAGTCACCTAGTGCAG,8220 fluorescence intensity (a.u.)
6,TGGCAGCATCTACCATCTCCTTCCAGCTGATACCCAGCACCGGAGTCACCTAGTGCAG,8600 fluorescence intensity (a.u.)
7,CTGCATATTGTTCATCTGGCGAGCCACGTCGATTGTTACACGGAGTCACCTAGTGCAG,12500 fluorescence intensity (a.u.)
8,GCCACCACGCCGAGAGCCCATCTTGTAGTCATCTCTCGCTCGGAGTCACCTAGTGCAG,8760 fluorescence intensity (a.u.)
9,GCAGGAATTTTTTTACCGGTGTTAGGCCCTGTCATCCGAACGGAGTCACCTAGTGCAG,8040 fluorescence intensity (a.u.)
10,CCATCGGCTGCAGTTTTTCCTCCATACTGTCGTCTGTAGCCGGAGTCACCTAGTGCAG,10000 fluorescence intensity (a.u.)
11,CCGCTGCCGCTTCCGCTTCCGCTTCTTCCGTTCTGGAGACCGGAGTCACCTAGTGCAG,10400 fluorescence intensity (a.u.)
12,TTTCTCCACTTTTGTCTTACTGTTGCCCCTATAAAGCTAACGGAGTCACCTAGTGCAG,9760 fluorescence intensity (a.u.)
13,TATGATTTGATTGATTTCTGGATCAGATTGCGTCCCTTGCCGGAGTCACCTAGTGCAG,8110 fluorescence intensity (a.u.)
14,CCAGAAGAAGCCGTAGATTTTTTTTCTTCCTATCCGGAATCGGAGTCACCTAGTGCAG,8670 fluorescence intensity (a.u.)
15,CCTATTCGTTCCGTATTTATGACCGATATTATCCATGTTTCGGAGTCACCTAGTGCAG,10300 fluorescence intensity (a.u.)
16,CCGACCGTTATATTACTACCCATTGTTACATGTACATTGACGGAGTCACCTAGTGCAG,8520 fluorescence intensity (a.u.)
17,GTTACACGTGAACGCGGCAGAATTGATTTCCTTGCACCGTCGGAGTCACCTAGTGCAG,9280 fluorescence intensity (a.u.)
18,TATTTTTCATTTTTTATATGTCTAATCTTCTTTCTTTTTCCGGAGTCACCTAGTGCAG,8260 fluorescence intensity (a.u.)
19,TTGGATTAGTAATGGCACGGTTCTTTGGGAAGGCTTTTATCGGAGTCACCTAGTGCAG,8340 fluorescence intensity (a.u.)
20,GTGAGGTGAGGGAGGAGGGGCGGTAAACGCGGGGTGATGGCGGAGTCACCTAGTGCAG,11400 fluorescence intensity (a.u.)
21,TTCCTCCAAGCTTCTAACCACCGTCTTGCCATTTAGGGTTCGGAGTCACCTAGTGCAG,9510 fluorescence intensity (a.u.)

row,Sequence,binding signal
1,TGTGGTGTTGAACTTCTTTTTTTTGTTCGAGATGACAGTTCGGAGTCACCTAGTGCAG,8200 fluorescence intensity (a.u.)
2,CTGGGTGGTTTGTTGCATTGATCATCTTTATAACTTGATACGGAGTCACCTAGTGCAG,9740 fluorescence intensity (a.u.)
3,TTAGCCATCCTCTTCAGACACATGCATCAATTTTACAGGTCGGAGTCACCTAGTGCAG,11600 fluorescence intensity (a.u.)
4,TGTATCTTCATCTCCTGAGCTCCGCGCTATTCTCCGTCCTCGGAGTCACCTAGTGCAG,8500 fluorescence intensity (a.u.)
5,TTGTGAGCGCCTTTGTTTGCACTATGCTTCTCAAAAAATACGGAGTCACCTAGTGCAG,8900 fluorescence intensity (a.u.)
6,TCCCATCTCCTCGTCCTCCGTGCCACCGCCGGCGCCTCTTCGGAGTCACCTAGTGCAG,9960 fluorescence intensity (a.u.)
7,TGCCCGACTTGGCTTTCTCCTCCTCTCTCCTCCCGCAACCCGGAGTCACCTAGTGCAG,8600 fluorescence intensity (a.u.)
8,TCTTTCATAGGGTGATTTTATTGTGTTTTAGCTTTTTAAACGGAGTCACCTAGTGCAG,9570 fluorescence intensity (a.u.)
9,ATAACTTGCAGTACCTTGATTTAAGCCACAACAGCTTAACCGGAGTCACCTAGTGCAG,8230 fluorescence intensity (a.u.)
10,TTAAAAATTATCTTACCCTTGCACGTGCCATTTTTTTTAGCGGAGTCACCTAGTGCAG,10300 fluorescence intensity (a.u.)
11,AAAGAGTTCCGTGCACGTTGACATACATTTTTCTTGCAATCGGAGTCACCTAGTGCAG,9840 fluorescence intensity (a.u.)
12,CTATGTCTTTCCTACGGCGCAATCGAACGACAATTCCTATCGGAGTCACCTAGTGCAG,10500 fluorescence intensity (a.u.)
13,AATCCATCCATCCATCCATGTGTACTTCCAATCCCAATCCCGGAGTCACCTAGTGCAG,10700 fluorescence intensity (a.u.)
14,TTCGTTCGTTCCGTATGTGGTCATTCGTTCCGTATGTGGTCGGAGTCACCTAGTGCAG,8400 fluorescence intensity (a.u.)
15,AAATTTTTTGGTGATTTGGTCTATTATATTATATATACTTCGGAGTCACCTAGTGCAG,8030 fluorescence intensity (a.u.)
16,ACAATCGCTTATACTCGACACACACACATTTCAAGATTCCCGGAGTCACCTAGTGCAG,10000 fluorescence intensity (a.u.)
17,TCTGTTCAGTTGTAATTGGCAACTTTACTCGTCTTATTGCCGGAGTCACCTAGTGCAG,8960 fluorescence intensity (a.u.)
18,GTGGGCTGGGCTTCTTCTTCGTCGTCTCATACCAATCGTGCGGAGTCACCTAGTGCAG,17100 fluorescence intensity (a.u.)
19,GGTTGGAATATTCTAGTTGCATGGCGTCATTTCAGAATGTCGGAGTCACCTAGTGCAG,9580 fluorescence intensity (a.u.)
20,TGCTCCTATAAATCCCAGCACCATGACCAAACCCATCACACGGAGTCACCTAGTGCAG,8900 fluorescence intensity (a.u.)
21,GTCCATTTTTCCTTTGCTTTTCTTTCAGGATCCTCTCTGACGGAGTCACCTAGTGCAG,8740 fluorescence intensity (a.u.)

row,Sequence,binding signal
1,ATAGATGTAATCCCTACCGTCCATCTGTAGATCGCTGATCCGGAGTCACCTAGTGCAG,8800 fluorescence intensity (a.u.)
2,TTCGTTGTTGGTGGTGGTGGCGGGCGGAAGATGCGGTTGCCGGAGTCACCTAGTGCAG,10000 fluorescence intensity (a.u.)
3,AACATATATTTATTGCATTCATCTAGACTTTGGAGCTAGTCGGAGTCACCTAGTGCAG,8600 fluorescence intensity (a.u.)
4,ACTCATTGGTTGCATACTTGCATTCACTCCTTGATTTTGTCGGAGTCACCTAGTGCAG,8810 fluorescence intensity (a.u.)
5,TGCCTTCAAATCTATCATGTCTTCTTTCTTTGACCTTTTACGGAGTCACCTAGTGCAG,9620 fluorescence intensity (a.u.)
6,CACCGCAATCCGGCCGCCCAATGGCGCGCCGCCACGTCACCGGAGTCACCTAGTGCAG,8650 fluorescence intensity (a.u.)
7,GTGTTTATCTCTCTCCTCCGCCTCGCTTCTCGCGTCCATCCGGAGTCACCTAGTGCAG,13500 fluorescence intensity (a.u.)
8,CCACTACAGTGAACCTTCTACTTGACTACTTTTATACATGCGGAGTCACCTAGTGCAG,9280 fluorescence intensity (a.u.)
9,CACCCTACGACTTTGACCGCGCGGCGCCACGGCGACTATTCGGAGTCACCTAGTGCAG,10100 fluorescence intensity (a.u.)
10,CATCACTCTGTGCTAGCTTTTCTCGTCTCATCTGGATTGGCGGAGTCACCTAGTGCAG,9720 fluorescence intensity (a.u.)
11,CACATCAAAGCTTTCCTACACGCAAAATTTTAACTTTTCTCGGAGTCACCTAGTGCAG,10500 fluorescence intensity (a.u.)
12,CCCGCCAGCCATCCCGCTGCCGTGCCGTCTCCATCTTCTACGGAGTCACCTAGTGCAG,8040 fluorescence intensity (a.u.)
13,TTCTGTACGTGGAAGCCCACTAATCTTGTCGTTAAGTAAGCGGAGTCACCTAGTGCAG,8040 fluorescence intensity (a.u.)
14,TCTCCTCTTTTTTTTTTCTTTGTTTGACCAAAAATTGGTACGGAGTCACCTAGTGCAG,11100 fluorescence intensity (a.u.)
15,ATCCCATCGCATTCGCCATTTCGCCTCCACTGTGGCGGAACGGAGTCACCTAGTGCAG,8350 fluorescence intensity (a.u.)
16,TGCACAGGGGTTAGTGGGCTTGTATTTCTAAAGCTGTCTTCGGAGTCACCTAGTGCAG,8250 fluorescence intensity (a.u.)
17,TCTCTAGCTAGCTTGCACATTCTTCATTCTTCTTGCAATCCGGAGTCACCTAGTGCAG,12100 fluorescence intensity (a.u.)
18,CCTTACGTGGTACTGTACTATATATCTAGACATACATTATCGGAGTCACCTAGTGCAG,10600 fluorescence intensity (a.u.)
19,GTGTCCTCATTAACTCCAGTTCGTTCCGGTCCATGTCTCGCGGAGTCACCTAGTGCAG,12100 fluorescence intensity (a.u.)
20,TGCTTTAATTTATTTACCTTACATTTTGCTACTCACATAACGGAGTCACCTAGTGCAG,9340 fluorescence intensity (a.u.)
21,TGGTGGGTGATTTGCAGGGGCGGTGAATCGGTGATCGATGCGGAGTCACCTAGTGCAG,9270 fluorescence intensity (a.u.)

# A section taken from the entries so far, as a working copy:
row,Sequence,binding signal
4,ACTCATTGGTTGCATACTTGCATTCACTCCTTGATTTTGTCGGAGTCACCTAGTGCAG,8810 fluorescence intensity (a.u.)
5,TGCCTTCAAATCTATCATGTCTTCTTTCTTTGACCTTTTACGGAGTCACCTAGTGCAG,9620 fluorescence intensity (a.u.)
6,CACCGCAATCCGGCCGCCCAATGGCGCGCCGCCACGTCACCGGAGTCACCTAGTGCAG,8650 fluorescence intensity (a.u.)
7,GTGTTTATCTCTCTCCTCCGCCTCGCTTCTCGCGTCCATCCGGAGTCACCTAGTGCAG,13500 fluorescence intensity (a.u.)
8,CCACTACAGTGAACCTTCTACTTGACTACTTTTATACATGCGGAGTCACCTAGTGCAG,9280 fluorescence intensity (a.u.)
9,CACCCTACGACTTTGACCGCGCGGCGCCACGGCGACTATTCGGAGTCACCTAGTGCAG,10100 fluorescence intensity (a.u.)
10,CATCACTCTGTGCTAGCTTTTCTCGTCTCATCTGGATTGGCGGAGTCACCTAGTGCAG,9720 fluorescence intensity (a.u.)
